Earlier results, collected in US12233043B1, “Method of transdermal delivery of cannabinoid compositions” (Florida A&M University, priority 2022, dated 2025).
Some entries share one result that the patent states for a list of compounds. Some compounds share one range, which may span the group rather than tell each member.

Details: cited from earlier work; for solubility in water: Koch, Jennotte et al. 2020; for log p: Tijani, Thakur et al. 2021

## C=C(C)[C@@H]1CCC(C)=C[C@H]1c1c(O)cc(CCCCC)cc1O [CBD, Cannabidiol, reference compound]
  solubility in water: 2 to 10 µg/mL
  log p: > 5

## CCCCCc1cc(O)c(C/C=C(\C)CCC=C(C)C)c(O)c1 [CBG, Cannabigerol]
  solubility in water: 2 to 10 µg/mL
  log p: > 5
